Values from PubChem BioAssay AID1224828 (NIAID, 2016).
Purpose: 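Find genes required for NF-kappaB p65 moving into the nucleus after LPS in mouse macrophages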 (primary screen). Cells: mouse RAW264.7 G9 macrophage reporter cells (GFP-p65, Tnf promoter-mCherry). Reagent: siRNA pool against mouse genes, 100 nM. Duration: 2 days siRNA transfection, then 40 min LPS before fixation. Challenge: LPS (Salmonella minnesota R595) at 10 ng/ml. Measured: 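Imaged p65 nuclear translocation ratio, normalised to the plate median, converted to robust z-scores and averaged across two replicates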. Direction: p65 translocation robust z-score: higher = more nuclear NF-kappaB p65 after LPS than the plate median; nuclear/cytoplasmic p65 ratio: higher = more nuclear NF-kappaB p65. Rule for the call: 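Active if robust z is above 3.3 (negative regulators) or below -1.56, the Tlr4 control median (positive regulators); activity score 50 or more; control wells not called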. Calls: active = hit (p65 shift raised or lowered); inactive = no clear change.
Here is one part, drawn at random, of about 17,000 reagents tested. Of all reagents, 762 (4.5%) are marked active. 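Active calls include both raised and lowered p65 entry, mostly lowered; wells with fewer than 50 cells lack a z-score.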 Raw values vary from plate to plate and are shown uncorrected.

| target gene | p65 translocation robust z-score | nuclear/cytoplasmic p65 ratio, rep 1 | nuclear/cytoplasmic p65 ratio, rep 2 | low cell count flag | call |
| --- | --- | --- | --- | --- | --- |
| Xkrx | -0.21 | 1.26 | 1.5 | enough cells to score | inactive |
| Xpnpep1 | 0.8 | 1.5 | 1.73 | enough cells to score | inactive |
| Gpsm1 | -0.3 | 1.09 | 1.52 | enough cells to score | inactive |
| Spata4 | -0.8 | 1.33 | 1.13 | enough cells to score | inactive |
| Etv5 | -0.7 | 1.41 | 1.25 | enough cells to score | inactive |
| Eps8l1 | 0.37 | 1.64 | 1.52 | enough cells to score | inactive |
| Zfyve26 | 1.64 | 1.66 | 1.68 | enough cells to score | inactive |
| Sh3bgrl3 | – | 1.6 | 1.21 | fewer than 50 cells per well; well left out of scoring | inactive |
| Defa5 | -0.12 | 1.56 | 1.52 | enough cells to score | inactive |
| Rock2 | – | – | 1.35 | fewer than 50 cells per well; well left out of scoring | inactive |
| Bora | 0.52 | 1.44 | 1.62 | enough cells to score | inactive |
| Opalin | – | 1.33 | 1.16 | fewer than 50 cells per well; well left out of scoring | inactive |
| Mcm7 | 0.47 | 1.51 | 1.4 | enough cells to score | inactive |
| P2rx1 | -0.9 | 1.28 | 1.34 | enough cells to score | inactive |
| Slc7a10 | -0.5 | 1.13 | 1.17 | enough cells to score | inactive |
| Ktn1 | -1.06 | 1.36 | 1.21 | enough cells to score | inactive |
| Bcar3 | -0.8 | 1.48 | 1.51 | enough cells to score | inactive |
| Sec14l4 | 1.19 | 1.54 | 1.39 | enough cells to score | inactive |
| Alpi | -0.06 | 1.61 | 1.6 | enough cells to score | inactive |
| Or56a4 | – | 1.32 | 1.25 | fewer than 50 cells per well; well left out of scoring | inactive |
| Mrpl34 | -1.68 | 1.53 | 1.32 | enough cells to score | active |
| Tm4sf1 | -0.48 | 1.42 | 1.48 | enough cells to score | inactive |
| Ube3b | 0.26 | 1.62 | 1.48 | enough cells to score | inactive |
| Phf6 | 1.52 | 1.63 | 1.68 | enough cells to score | inactive |
| Ca12 | 0.43 | 1.69 | 1.66 | enough cells to score | inactive |
| Slc35d2 | -2.11 | 1.18 | 1.09 | enough cells to score | active |
| Mmp10 | 0.33 | 1.42 | 1.44 | enough cells to score | inactive |
| Trim7 | 2.49 | 1.72 | 1.51 | enough cells to score | inactive |
| Spata31d1a | – | 1.39 | 1.51 | fewer than 50 cells per well; well left out of scoring | inactive |
| Zfp334 | -0.23 | 1.36 | 1.24 | enough cells to score | inactive |
| BC016548 | 0.22 | 1.57 | 1.92 | enough cells to score | inactive |
| Gtf2h5 | 1.34 | 1.65 | 1.86 | enough cells to score | inactive |
| Lcn3 | 1.86 | 1.82 | 1.68 | enough cells to score | inactive |
| Hacl2 | – | 1.34 | 1.2 | fewer than 50 cells per well; well left out of scoring | inactive |
| Acsl3 | -0.16 | 1.66 | 1.53 | enough cells to score | inactive |
| Or1e35 | 0.95 | 1.72 | 1.58 | enough cells to score | inactive |
| Mzb1 | – | 1.31 | 1.24 | fewer than 50 cells per well; well left out of scoring | inactive |
| Phf24 | – | 1.59 | 1.45 | fewer than 50 cells per well; well left out of scoring | inactive |
| Esco2 | – | 1.49 | 1.41 | fewer than 50 cells per well; well left out of scoring | inactive |
| Eed | -0.98 | 1.35 | 1.22 | enough cells to score | inactive |

5 entries already listed, sorted by “nuclear/cytoplasmic p65 ratio, rep 2”, low to high:
| target gene | p65 translocation robust z-score | nuclear/cytoplasmic p65 ratio, rep 1 | nuclear/cytoplasmic p65 ratio, rep 2 | low cell count flag | call |
| --- | --- | --- | --- | --- | --- |
| Opalin | – | 1.33 | 1.16 | fewer than 50 cells per well; well left out of scoring | inactive |
| P2rx1 | -0.9 | 1.28 | 1.34 | enough cells to score | inactive |
| Rock2 | – | – | 1.35 | fewer than 50 cells per well; well left out of scoring | inactive |
| Mcm7 | 0.47 | 1.51 | 1.4 | enough cells to score | inactive |
| Bora | 0.52 | 1.44 | 1.62 | enough cells to score | inactive |
